# Test results published in PubChem BioAssay AID1671190 (National Center for Advancing Translational Sciences (NCATS), 2021).
# Protein sequences, listed by entry. Tags and fused reporters are not part of them. Lines headed by an entry give the natural chain unless they say otherwise; changes in a name come on top.
# UniProt P18054: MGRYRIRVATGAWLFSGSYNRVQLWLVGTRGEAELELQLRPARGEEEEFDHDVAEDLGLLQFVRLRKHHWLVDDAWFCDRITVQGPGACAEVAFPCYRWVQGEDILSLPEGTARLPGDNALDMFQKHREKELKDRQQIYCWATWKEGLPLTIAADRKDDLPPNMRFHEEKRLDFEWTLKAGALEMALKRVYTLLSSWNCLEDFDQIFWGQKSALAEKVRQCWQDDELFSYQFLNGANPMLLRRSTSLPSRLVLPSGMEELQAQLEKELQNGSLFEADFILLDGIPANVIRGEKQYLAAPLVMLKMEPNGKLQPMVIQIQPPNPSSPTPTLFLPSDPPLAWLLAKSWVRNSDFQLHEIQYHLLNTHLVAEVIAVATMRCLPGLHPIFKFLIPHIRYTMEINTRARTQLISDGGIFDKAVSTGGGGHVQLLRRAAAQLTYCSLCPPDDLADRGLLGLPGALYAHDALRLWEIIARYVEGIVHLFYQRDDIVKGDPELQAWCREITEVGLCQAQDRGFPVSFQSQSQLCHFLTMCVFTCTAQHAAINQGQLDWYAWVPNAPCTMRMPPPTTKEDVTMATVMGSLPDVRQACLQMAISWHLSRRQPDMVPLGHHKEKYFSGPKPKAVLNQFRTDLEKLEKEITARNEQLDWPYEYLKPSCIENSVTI
# Screen size: about 580,000 compounds; about 6,100 (1.1%) were called active. The shares of active, inactive and inconclusive entries below differ from those in the screen. Calls follow the shape of the dose curve; as a rule, active = well fitted inhibition curve with a large enough effect; inconclusive = small, poorly fitted or top-dose-only effect, or another doubt; inactive = no such curve, though single readings can be large or run the other way. Where the call is inconclusive, the potency comes from a doubtful curve fit.
# Target: Polyunsaturated fatty acid lipoxygenase ALOX12 (Homo sapiens) (UniProt P18054)
# Assay: Primary qHTS assay for inhibitors of human arachidonate 12S-lipoxygenase (ALOX12): Round 2
# Conditions: purified 12hLO, xylenol orange hydroperoxide absorbance; activity change, negative = inhibition: at 108 µM (top of the series) unless noted
# In short: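 Purified human 12hLO (150 nM final) in 25 mM Hepes, 0.01% Triton X-100, pH 7.0 was preincubated 15 min at room temperature with compound. Then 40 uM arachidonic acid was added, 30 min. Hydroperoxide was read by Fe-XO absorbance ratio 573/405 nm.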
# % is scaled to controls: 0 for no effect and ±100 for the full control effect; potency is read from the fitted curve at half-maximal effect.
Compound,Potency,"activity change, negative = inhibition"
Cc1ccc(-c2cc3c(=O)n(CCNC(=O)c4ccc5ccccc5n4)ccn3n2)cc1C,"inconclusive: 10 µM [inhibitor, full curve]",–
Cc1cccc(N/N=C2/COC(C)(C)CC2=O)c1,"inconclusive: 44.7 µM [inhibitor, partial curve, poor fit]",–
CCC(C(=O)NC1CCCC1)n1c(-c2ccccn2)nc2ccccc21 (centres undefined),"inconclusive: 31.6 µM [inhibitor, single point]",–
CNc1ncnc2ccc(-c3ccc4c(c3)OCO4)cc12,"inconclusive: 15.8 µM [inhibitor, partial curve, poor fit]",–
O=C(CSCc1ccccn1)N(Cc1ccsc1)C1CC1,"inconclusive: 1.12 µM [inhibitor, full curve]",–
CCC(Cn1ccnc1-c1ccc(SC)cc1)N1CCN(C)CC1 (centres undefined),–,inactive: 53.6%
CC(=O)Nc1cccc(NC(=O)CSc2nccn2C2CCCC2)c1,"inconclusive: 112 µM [inhibitor, partial curve, poor fit]",–
CCN(C(=O)COC(=O)c1cc2ccccc2[nH]1)C1CCCCC1,"inconclusive: 126 µM [inhibitor, single point]",–
COc1cccc(C(=O)NNS(=O)(=O)c2ccc(F)cc2)c1,"inconclusive: 39.8 µM [inhibitor, partial curve, poor fit]",–
Cc1ccc(CNC(=O)c2cc3c(-c4ccc(Cl)cc4)nn(C)c3s2)o1,"inconclusive: 112 µM [inhibitor, single point]",–
O=C(Cn1ccn(-c2ccc(F)c(F)c2)c(=O)c1=O)Nc1cccc(Cl)c1,–,inactive: -17.5%
CSc1ccc(/C=C(/C#N)C(=O)NC(C)C)cc1,–,inactive: 0.0201%
C=Cc1ccc(Cn2c(C)c(CNCc3ccc(SC)cc3)c(C(=O)O)c2C)cc1,"inconclusive: 100 µM [inhibitor, partial curve, poor fit]",–
CC(=NNc1nc2ccccc2s1)c1ncccn1,–,inactive: -0.728%
FC(F)(F)c1cccc(CSc2nnc(SCc3ccc(Cl)cc3)s2)c1,–,inactive: -24.6%
Cc1ccc(C(=O)N2CCC3(CC2)CC(=O)N(c2ccccc2)c2ccccc2O3)cc1,–,inactive: -0.803%
NC(=O)C1CCN(C(=O)CC2C(=O)NCCN2Cc2cccc(Oc3ccccc3)c2)CC1 (centres undefined),"inconclusive: 22.4 µM [inhibitor, partial curve, poor fit]",–
COc1c(O[C@@H]2O[C@H](CO)[C@@H](O)[C@H](O)[C@H]2O)cc2c(c1OC)-c1ccc(SC)c(=O)cc1C(NC(C)=O)CC2 (some centres undefined),"inconclusive: 44.7 µM [inhibitor, partial curve, poor fit]",–
COc1ccc(NC(=S)NNC(N)=O)cc1,"inconclusive: 8.91 µM [inhibitor, full curve, poor fit]",–

# Some of the entries above, set out differently:
Compound	Potency	activity change, negative = inhibition
CCC(C(=O)NC1CCCC1)n1c(-c2ccccn2)nc2ccccc21 (centres undefined)	inconclusive: 31.6 µM [inhibitor, single point]	–
CSc1ccc(/C=C(/C#N)C(=O)NC(C)C)cc1	–	inactive: 0.0201%
